Measured values from the supplement of paper PMC6143611.
Where a name gives a salt, the structure may show the parent alone. ± gives the uncertainty stated by the source. This is one part of the list. Plates or batches differ in their baseline, so values are only roughly comparable.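 A heat-shock-induced fluorescent stripe was set in larval rod outer segments at 6 dpf. Shedding distance ran from stripe to outer segment tip, measured by confocal stacks in about three fish per compound. Controls: 0.2% DMSO vehicle. Flagged compounds showed ≥20% change from same-week control, p < 0.001 (Dunnett test on mixed-effects models).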

tested on: Danio rerio larva rod photoreceptor outer segment; assay: rod outer segment growth distance Dg, difference from same-week DMSO control mean; higher = more outer segment growth; conditions: 20 µM; treatment time: 4 days (6-10 dpf)

Point of comparison: `O=[N+]([O-])c1cn2c(n1)OC[C@@H](OCc1ccc(OC(F)(F)F)cc1)C2`, “rod outer segment growth distance Dg” value -0.64 ± 0.33 um. Against it:
- CCCCc1nc(Cl)c(CO)n1Cc1ccc(-c2ccccc2-c2nnn[nH]2)cc1 [Losartan Potassium (DuP 753)] — lower, -1.49 ± 0.29 um
- Nc1ncn([C@@H]2O[C@H](CO)[C@@H](O)[C@H]2O)c(=O)n1 [Azacitidine] — within error, -0.65 ± 0.23 um
- CCc1cc2c(cc1N1CCC(N3CCOCC3)CC1)C(C)(C)c1[nH]c3cc(C#N)ccc3c1C2=O — within error, -0.63 ± 0.14 um
- CNS(=O)(=O)CCc1ccc2[nH]cc(C3CCN(C)CC3)c2c1 [Naratriptan] — within error, -0.5 ± 0.16 um
- COc1ccccc1OCC(O)CO (configuration not stated) [Guaifenesin] — within error, -0.39 ± 0.22 um
- O=c1c(-c2ccc(O)cc2)coc2cc(O)ccc12 [Daidzein] — within error, -0.92 ± 0.18 um
- C=C1c2cccc(O)c2C(O)=C2C(=O)[C@]3(O)C(O)=C(C(N)=O)C(=O)[C@@H](N(C)C)[C@@H]3[C@@H](O)[C@H]12 [Methacycline HCl] — higher, 0.22 ± 0.19 um
- Cc1ccc(-n2[nH]c(C)c(N=Nc3cccc(-c4cccc(C(=O)O)c4)c3O)c2=O)cc1C [Eltrombopag] — lower, -1.26 ± 0.25 um
- C[C@@H](O)[C@H]1C(=O)N2C(C(=O)OCOC(=O)C(C)(C)C)=C(SC3CN(C4=NCCS4)C3)[C@H](C)[C@H]12 [Tebipenem Pivoxil] — higher, 0.37 ± 0.32 um
- CC(C)[N+]1(C)[C@@H]2CC[C@H]1C[C@@H](OC(=O)C(CO)c1ccccc1)C2 (some centres not stated) [Ipratropium Bromide] — higher, 0.42 ± 0.17 um
- CC(N)C12CC3CC(CC(C3)C1)C2 (configuration not stated) [Rimantadine] — higher, 0.69 ± 0.28 um
- Cc1cnc(C(=O)NCCc2ccc(S(=O)(=O)NC(=O)NC3CCCCC3)cc2)cn1 [Glipizide] — higher, 0.02 ± 0.27 um
- CNC[C@H](O)c1ccc(O)c(O)c1 [Epinephrine HCl] — higher, 1.04 ± 0.15 um
- COc1cc2nc(N3CCN(C(=O)c4ccco4)CC3)nc(N)c2cc1OC [Prazosin HCl] — within error, -0.67 ± 0.16 um
- O=C(O)Cc1ccccc1Nc1c(Cl)cccc1Cl [Diclofenac Sodium] — higher, 0.19 ± 0.23 um
- O=c1c(-c2ccc(O)cc2)coc2c([C@@H]3O[C@H](CO)[C@@H](O)[C@H](O)[C@H]3O)c(O)ccc12 [Puerarin] — within error, -1.53 ± 1.5 um
- CN(C)/N=N/c1[nH]cnc1C(N)=O [Dacarbazine] — higher, 0.04 ± 0.32 um
- Nc1ccn([C@H]2CC[C@@H](CO)O2)c(=O)n1 [Zalcitabine] — higher, 0.78 ± 0.26 um
- CCOC(=O)[C@H](CCc1ccccc1)N[C@@H](C)C(=O)N1Cc2cc(OC)c(OC)cc2C[C@H]1C(=O)O [Moexipril HCl] — higher, 0.46 ± 0.2 um
- COc1ccc(C[C@@H]2c3cc(OC)c(OC)cc3CC[N@+]2(C)CCC(=O)OCCCCCOC(=O)CC[N@@+]2(C)CCc3cc(OC)c(OC)cc3[C@H]2Cc2ccc(OC)c(OC)c2)cc1OC [Cisatracurium Besylate] — higher, 0.64 ± 0.21 um
- CC[C@H]1OC(=O)[C@H](C)[C@@H](O[C@H]2C[C@@](C)(OC)[C@@H](O)[C@H](C)O2)[C@H](C)[C@@H](O[C@@H]2O[C@H](C)C[C@H](N(C)C)[C@H]2O)[C@](C)(OC)C[C@@H](C)C(=O)[C@H](C)[C@@H](O)[C@]1(C)O [Clarithromycin] — within error, -0.94 ± 0.22 um
- C=CC[N+]1([C@H]2C[C@H]3[C@@H]4CC[C@H]5C[C@H](O)[C@@H](N6CCOCC6)C[C@]5(C)[C@H]4CC[C@]3(C)[C@H]2OC(C)=O)CCCC1 [Rocuronium Bromide] — within error, -0.87 ± 0.19 um
- OC[C@H]1OC(O)[C@H](O)[C@@H](O)[C@@H]1O (some centres not stated) [Dextrose] — higher, 0.76 ± 0.22 um
- Nc1cc(C(Cl)=C(Cl)Cl)c(S(N)(=O)=O)cc1S(N)(=O)=O [Clorsulon] — within error, -0.37 ± 0.18 um
- CCCCCCOC(=O)NC(=N)c1ccc(NCc2nc3cc(C(=O)N(CCC(=O)OCC)c4ccccn4)ccc3n2C)cc1 [Dabigatran Etexilate] — within error, -0.45 ± 0.3 um
- CC(=O)OCC(CCn1cnc2cnc(N)nc21)COC(C)=O [Famciclovir] — higher, 0.48 ± 0.27 um
- CC[C@H](Nc1ncnc2[nH]cnc12)c1nc2cccc(F)c2c(=O)n1-c1ccccc1 [CAL-101 (Idelalisib, GS-1101)] — higher, 0.12 ± 0.2 um
- COC(=O)/C=C/C(=O)OC [Dimethyl Fumarate] — higher, 0.29 ± 0.28 um
- COc1ccc2[nH]c([S+]([O-])Cc3ncc(C)c(OC)c3C)nc2c1 (configuration not stated) [Omeprazole] — within error, -0.41 ± 0.2 um
- O=C1NC(=O)/C(=C/c2ccc(-c3ccc(F)cc3O)o2)S1 — within error, -0.42 ± 0.22 um
- C[C@H](NC(=O)Cc1cc(F)cc(F)c1)C(=O)N[C@H](C(=O)OC(C)(C)C)c1ccccc1 — higher, 0.75 ± 0.32 um
